# Test results reported in patent publication US11485769B2, “Peptides and combination of peptides for use in immunotherapy and methods for generating scaffolds for the use against pancreatic cancer and other cancers” (Immatics Biotechnologies GmbH, priority 2015, dated 2022).
# Test system: tumors compared to a panel of normal tissues
# Assay: Identification and label-free LC-MS quantitation of HLA-presented tumor associated peptides (presentation profiles/scores)
# Parameters: species or system human; key to Peptide Presentation (presentation score): very highly over-presented on tumors compared to a panel of normal tissues (+++); highly over-presented on tumors compared to a panel of normal tissues (++); over-presented on tumors compared to a panel of normal tissues (+)
# Conditions: for Peptide Presentation (presentation score): over-presentation on tumors compared to a panel of normal tissues, label-free LC-MS quantitation of HLA peptides
substance,measurement,setting,value
89 (KLADIQIEQL; listed as Homo sapiens) [compound 89],peptide additionally found on colon or rectum cancers (positive/measured samples),,2/29
same,peptide additionally found on leukocytic leukemia cancers (positive/measured samples),leukocytic leukemia cancers,1/17
same,peptide additionally detected on lung cancers (positive/measured samples),,4/107
same,peptide additionally detected on ovarian cancers (positive/measured samples),,4/20
same,peptide additionally detected on urinary bladder cancers (positive/measured samples),,4/16
70 (VLGVIWGV; listed as Homo sapiens) [compound 70],Peptide Presentation (presentation score),,+++
68 (VLFDVTGQV; listed as Homo sapiens) [compound 68],Peptide Presentation (presentation score),,+++
48 (LLDENGVLKL; listed as Homo sapiens) [compound 48],Peptide Presentation (presentation score),,+++
162 (NADPQAVTM; listed as Homo sapiens) [compound 162],Peptide Presentation (presentation score),,+++
37 (FLNPDEVHAI; listed as Homo sapiens) [compound 37],peptide additionally detected on brain cancers (positive/measured samples),,2/34
same,peptide additionally detected on breast cancers (positive/measured samples),,3/18
same,peptide additionally found on colon or rectum cancers (positive/measured samples),,6/29
same,peptide additionally detected on esophageal cancers (positive/measured samples),,2/18
same,peptide additionally detected on gallbladder or bile duct cancers (positive/measured samples),gallbladder/bile duct cancers,2/17
same,peptide additionally found on head and neck cancers (positive/measured samples),,2/8
same,peptide additionally detected on kidney cancers (positive/measured samples),kidney cancers,1/23
same,peptide additionally detected on liver cancers (positive/measured samples),,5/21
same,peptide additionally detected on lung cancers (positive/measured samples),,25/107
same,peptide additionally found on lymph node cancers (positive/measured samples),,4/20
same,peptide additionally detected on ovarian cancers (positive/measured samples),,7/20
same,Peptide Presentation (presentation score),,+
same,peptide additionally detected on prostate cancers (positive/measured samples),prostate cancers,1/87
same,peptide additionally found on skin cancers (positive/measured samples),,2/18
same,peptide additionally detected on stomach cancers (positive/measured samples),stomach cancers,2/45
same,peptide additionally detected on urinary bladder cancers (positive/measured samples),,6/15
same,peptide additionally found on uterus cancers (positive/measured samples),,3/16
71 (VLLPEGGITAI; listed as Homo sapiens) [compound 71],Peptide Presentation (presentation score),,+++
24 (KLSENAGIQSL; listed as Homo sapiens) [compound 24],Peptide Presentation (presentation score),,+++
18 (ALFVRLLAL; listed as Homo sapiens) [compound 18],Peptide Presentation (presentation score),,+++
57 (RLSELGITQA; listed as Homo sapiens) [compound 57],peptide additionally detected on brain cancers (positive/measured samples),,1/34
same,peptide additionally detected on breast cancers (positive/measured samples),,1/18
same,peptide additionally detected on esophageal cancers (positive/measured samples),,2/18
same,peptide additionally found on head and neck cancers (positive/measured samples),,2/8
same,peptide additionally detected on liver cancers (positive/measured samples),,1/21
same,peptide additionally detected on lung cancers (positive/measured samples),,8/107
same,peptide additionally found on lymph node cancers (positive/measured samples),,4/20
same,peptide additionally found on myeloid cell cancers (positive/measured samples),myeloid cell cancers,1/18
same,peptide additionally detected on ovarian cancers (positive/measured samples),,4/20
same,Peptide Presentation (presentation score),,++
same,peptide additionally found on skin cancers (positive/measured samples),,4/18
same,peptide additionally detected on urinary bladder cancers (positive/measured samples),,2/15
same,peptide additionally found on uterus cancers (positive/measured samples),,1/16
56 (NLIGVTAEL; listed as Homo sapiens) [compound 56],Peptide Presentation (presentation score),,+++
125 (ALLGKLDAINV; listed as Homo sapiens) [compound 125],Peptide Presentation (presentation score),,+++
160 (VLLPDERTISL; listed as Homo sapiens) [compound 160],Peptide Presentation (presentation score),,+++
45 (ILYSDDGQKWTV; listed as Homo sapiens) [compound 45],Peptide Presentation (presentation score),,+++
55 (NLAPAPLNA; listed as Homo sapiens) [compound 55],Peptide Presentation (presentation score),,+++
166 (SLFPGQVVI; listed as Homo sapiens) [compound 166],Peptide Presentation (presentation score),,+++
130 (FLFGEEPSKL; listed as Homo sapiens) [compound 130],Peptide Presentation (presentation score),,+
106 (FVWSGTAEA; listed as Homo sapiens) [compound 106],Peptide Presentation (presentation score),,+++
150 (ALFQPHLINV; listed as Homo sapiens) [compound 150],Peptide Presentation (presentation score),,++
35 (FLFPSQYVDV; listed as Homo sapiens) [compound 35],Peptide Presentation (presentation score),,+++
144 (TAVALLRLL; listed as Homo sapiens) [compound 144],Peptide Presentation (presentation score),,+++
164 (YLGRLAHEV; listed as Homo sapiens) [compound 164],Peptide Presentation (presentation score),,++
8 (ALYTGSALDFV; listed as Homo sapiens) [compound 8],Peptide Presentation (presentation score),,+++
122 (MQAPRAALVFA; listed as Homo sapiens) [compound 122],Peptide Presentation (presentation score),,+
143 (TADPLDYRL; listed as Homo sapiens) [compound 143],Peptide Presentation (presentation score),,++
21 (GLVDGRDLVIV; listed as Homo sapiens) [compound 21],Peptide Presentation (presentation score),,+++
120 (VLVNDFFLV; listed as Homo sapiens) [compound 120],Peptide Presentation (presentation score),,++
158 (SLIEKYFSV; listed as Homo sapiens) [compound 158],Peptide Presentation (presentation score),,+
176 (YLMPGFIHL; listed as Homo sapiens) [compound 176],Peptide Presentation (presentation score),,+++
39 (FLTPSIFII; listed as Homo sapiens) [compound 39],Peptide Presentation (presentation score),,+++
51 (LLGPAGARA; listed as Homo sapiens) [compound 51],Peptide Presentation (presentation score),,+++
5 (ALLTGIISKA; listed as Homo sapiens) [compound 5],peptide additionally detected on brain cancers (positive/measured samples),,2/34
same,peptide additionally detected on breast cancers (positive/measured samples),,1/18
same,peptide additionally found on colon or rectum cancers (positive/measured samples),,2/29
same,peptide additionally detected on esophageal cancers (positive/measured samples),,1/18
same,peptide additionally found on head and neck cancers (positive/measured samples),,1/8
same,peptide additionally detected on liver cancers (positive/measured samples),,1/21
same,peptide additionally detected on lung cancers (positive/measured samples),,8/107
same,peptide additionally found on lymph node cancers (positive/measured samples),,1/20
same,peptide additionally detected on ovarian cancers (positive/measured samples),,1/20
same,Peptide Presentation (presentation score),,+++
same,peptide additionally found on skin cancers (positive/measured samples),,1/18
same,peptide additionally detected on urinary bladder cancers (positive/measured samples),,2/15
same,peptide additionally found on uterus cancers (positive/measured samples),,1/16
167 (MLFGHPLLVSV; listed as Homo sapiens) [compound 167],Peptide Presentation (presentation score),,+++
156 (LLLPPPPCPA; listed as Homo sapiens) [compound 156],Peptide Presentation (presentation score),,+
81 (VVYDDSTGLIRL; listed as Homo sapiens) [compound 81],Peptide Presentation (presentation score),,+++
116 (SMMDPNHFL; listed as Homo sapiens) [compound 116],Peptide Presentation (presentation score),,++
77 (RLFPGSSFL; listed as Homo sapiens) [compound 77],Peptide Presentation (presentation score),,+++
30 (YIYKDTIQV; listed as Homo sapiens) [compound 30],Peptide Presentation (presentation score),,+++
133 (ILDDVSLTHL; listed as Homo sapiens) [compound 133],Peptide Presentation (presentation score),,+++
